Among the data in patent EP4470537A1, “COMPOUND FOR USE IN TREATING FIBRODYSPLASIA OSSIFICANS PROGRESSIVA (FOP)” (Queen's University At Kingston, priority 2023, dated 2024) are therapeutic window values, retold here.

This data set in a line: Mapping a therapeutic window (efficacy versus toxicity). The data set is classed as in vivo. Particulars: result in words; efficacy of 50% or greater versus toxicity, juvenile mouse.

“Also recorded” adds a separate entry of the source.

Consider `CC1(C)CCC(C)(C)c2cc(Cn3cccn3)c(/C=C/c3ccc(C(=O)O)cc3)cc21` [palovarotene, reference compound], for which the therapeutic window result was “no dose of palovarotene which is able to elicit efficacy of 50% or greater, without toxicity; also recorded: no therapeutic window”.
